Laboratory results reported in PubChem BioAssay AID248 (DTP/NCI, 2004).
The list is a part of this screen's results and no random one: it gathers tests that were run many times, whatever their T/C, doses with no T/C, and many T/C values between a quarter and a half above the control. Other doses and runs of a compound stand elsewhere. T/C gives the treated animals as a percentage of the vehicle group. Some entries give survivors of the animals treated and no T/C: the source holds a T/C of zero for them, seemingly a mark for toxic or unscored doses. Some survivor counts are full or nearly so, which does not show that the dose was tolerated: survival well below the control is almost never listed, so the zero probably covers shortened survival too. Survivors were counted at the toxicity check, usually on the fifth day, unless a day is given; later deaths do not show. Schedules are NCI's codes, read here as Q, the interval in days (D) or hours (H), X, the number of doses. Some entries hold several experiments; the values are given in rising order. Some schedules carry Z or #; the key to these is not given. Where survival is the endpoint, the PubChem record calls one and a half times the control and up active, and a quarter to a half above the control has no call in these data; cut-offs in other NCI protocols can differ.

System: L1210 leukemia ip in BDF1 mice, survival T/C
Test: NCI In Vivo Anticancer Drug Screen. Data for tumor model L1210 Leukemia (intraperitoneal) in B6D2F1 (BDF1) mice
Conditions: T/C endpoint: mean survival time, higher T/C = longer survival
[1] = dose: 200.0 mg/kg/injection, schedule: Q01DX001 (ip), vehicle: saline
[2] = dose: 400.0 mg/kg/injection, schedule: Q01DX009 (ip), vehicle: saline with Tween-80
[3] = dose: 150.0 mg/kg/injection, schedule: Q01DX001 (ip), vehicle: saline
[4] = dose: 300.0 mg/kg/injection, schedule: Q01DX001 (ip), vehicle: saline
[5] = dose: 100.0 mg/kg/injection, schedule: Q04DX003 (ip), vehicle: saline
[6] = dose: 200.0 mg/kg/injection, schedule: Q04DX003 (ip), vehicle: saline
[7] = dose: 400.0 mg/kg/injection, schedule: Q04DX003 (ip), vehicle: saline
[8] = dose: 100.0 mg/kg/injection, schedule: Q04DX003 (ip), vehicle: saline with Tween-80
[9] = dose: 200.0 mg/kg/injection, schedule: Q04DX003 (ip), vehicle: saline with Tween-80
[10] = dose: 400.0 mg/kg/injection, schedule: Q04DX003 (ip), vehicle: saline with Tween-80
[11] = dose: 400.0 mg/kg/injection, schedule: Q01DX001 (ip), vehicle: carboxymethylcellulose (CMC)

With `CCCCC(=O)N(c1ccc(Nc2c3ccccc3nc3cc([N+](=O)[O-])ccc23)cc1)S(C)(=O)=O` the T/C (dose: 6.25 mg/kg/injection, schedule: Q01DX009 (sc), vehicle: saline) was 129 % of control, the T/C (dose: 11.0 mg/kg/injection, schedule: Q04DX003 (ip), vehicle: saline with Tween-80) was 137 % of control and the T/C (dose: 12.5 mg/kg/injection, schedule: Q01DX009 (ip), vehicle: saline with Tween-80) was 144 % of control. For the same compound, the T/C (dose: 12.5 mg/kg/injection, schedule: Q01DX009 (sc), vehicle: saline) was 138 % of control and the survivor count (dose: 300.0 mg/kg/injection, schedule: Q04DX003 (ip), vehicle: saline with Tween-80) was 2 of 6.

For `CCCCCCCCCCCCCCCCCC[n+]1ccc(C(=O)c2ccccc2)cc1`, the survivor count (dose: 75.0 mg/kg/injection, schedule: Q01DX001 (ip), vehicle: other) was 5 of 6, the survivor count (dose: 150.0 mg/kg/injection, schedule: Q01DX001 (ip), vehicle: other) was 1 of 6 and the survivor count (dose: 300.0 mg/kg/injection, schedule: Q01DX001 (ip), vehicle: other) was 0 of 6.

With `COCC(O)C(OC)C(OC)C(C=O)NC(=O)N(CCCl)N=O` (configuration not stated) the T/C (dose: 6.0 mg/kg/injection, schedule: Q01DX001 (ip), vehicle: saline with Tween-80) was 134 % of control, the T/C (dose: 9.0 mg/kg/injection, schedule: Q01DX001 (ip), vehicle: saline with Tween-80) was 140 % of control and the survivor count (dose: 168.0 mg/kg/injection, schedule: Q01DX001 (ip), vehicle: saline with Tween-80) was 10 of 10.

In the case of `C[N+]1(C)CCOC(O)(c2ccccc2)C1` (configuration not stated), the survivor count (dose: 50.0 mg/kg/injection, schedule: Q01DX001 (ip), vehicle: saline) is reported as 0 of 4, the survivor count [1] is reported as 0 of 4 and the survivor count (dose: 400.0 mg/kg/injection, schedule: Q01DX001 (ip), vehicle: saline) is reported as 0 of 4.

For `Fc1cccc2ccccc12`, the survivor count [2] was 2 of 6.

For `COc1ccccc1CNC1CCCCC1`, the survivor count [3] was 2 of 6 and the survivor count [4] was 1 of 6.

For `O=C(C=C(C(F)(F)F)C(F)(F)F)c1ccccc1`, the survivor count (dose: 400.0 mg/kg/injection, schedule: Q01DX009 (ip), vehicle: saline) was 2 of 6.

`Cc1ccc([N+](=O)[O-])cc1NC(=O)Nc1ccccc1O` was tested, and the survivor count (dose: 200.0 mg/kg/injection, schedule: Q01DX009 (ip), vehicle: Klucel (hydroxypropylcellulose) (HPC)) was 6 of 6.

With `CC1(C)C2CCC(CCOC(=O)COc3ccc(Cl)cc3Cl)C1C2` (configuration not stated) the survivor count [2] was 4 of 6.

With `CC1C[N-]CC(C)C1.CC1C[N-]CC(C)C1.CC1C[N-]CC(C)C1.CC1C[N-]CC(C)C1.[Cl][Rh][Cl]` (configuration not stated) the survivor count (dose: 12.5 mg/kg/injection, schedule: Q01DX009 (ip), vehicle: gum acacia) was 5 of 6, the survivor count (dose: 25.0 mg/kg/injection, schedule: Q01DX009 (ip), vehicle: gum acacia) was 5 of 6 and the survivor count (dose: 50.0 mg/kg/injection, schedule: Q01DX009 (ip), vehicle: gum acacia) was 1 of 6. The survivor count (dose: 50.0 mg/kg/injection, schedule: Q04DX003 (ip), vehicle: gum acacia) was 6 of 6, the survivor count (dose: 100.0 mg/kg/injection, schedule: Q04DX003 (ip), vehicle: gum acacia) was 5 of 6 and the survivor count (dose: 200.0 mg/kg/injection, schedule: Q04DX003 (ip), vehicle: gum acacia) was 2 of 6. For the same compound, the survivor count (dose: 400.0 mg/kg/injection, schedule: Q04DX003 (ip), vehicle: gum acacia) was 1 of 6.

With `c1cc(-c2ccc(C3=NCCN3)cc2)ccc1C1=NCCN1` the survivor count (dose: 120.0 mg/kg/injection, schedule: Q01DX Z (ip), vehicle: saline) was 0 of 6.

With `O=c1ccc([N+](=O)[O-])c[nH]1` the survivor count [5] was 6 of 6.

In the case of `CCOC(=O)C(C#N)C1CCCCC1` (configuration not stated), the survivor count (dose: 400.0 mg/kg/injection, schedule: Q01DX001 (ip), vehicle: saline with Tween-80) is reported as 3 of 3.

In the case of `CSc1ccc2c(c1)N(CCCN(C)C)c1ccccc1S2`, the survivor count (dose: 12.5 mg/kg/injection, schedule: Q04DX003 (ip), vehicle: saline) is reported as 0 of 6, the survivor count (dose: 25.0 mg/kg/injection, schedule: Q01DX009 (ip), vehicle: saline) is reported as 0 of 6 and the survivor count (dose: 50.0 mg/kg/injection, schedule: Q04DX003 (ip), vehicle: saline) is reported as 5 of 6. The survivor count [5] was 0 of 6, the survivor count [6] was 0 of 6 and the survivor count [7] was 0 of 6.

In the case of `CS(=O)(=O)Nc1ccc(Nc2c3ccccc3nc3cc(Cl)ccc23)cc1`, the T/C (dose: 40.0 mg/kg/injection, schedule: Q01DX009 (sc), vehicle: saline) is reported as 142 % of control and the T/C (dose: 80.0 mg/kg/injection, schedule: Q01DX009 (sc), vehicle: saline) is reported as 126 % of control.

`CCOc1ccccc1C1CCCCC1OS(=O)(=O)c1ccc(C)cc1` (configuration not stated) was tested, and the survivor count (dose: 50.0 mg/kg/injection, schedule: Q01DX009 (ip), vehicle: acetone) was 6 of 6.

In the case of `CCCSP(C(C)C)C(C)C`, the survivor count [8] is reported as 0 of 6, the survivor count [9] is reported as 0 of 6 and the survivor count [10] is reported as 0 of 6.

In the case of `COc1ccc(Cc2c3cc(OC)c(OC)cc3cc[n+]2C)cc1OC`, the survivor count (dose: 100.0 mg/kg/injection, schedule: Q01DX009 (ip), vehicle: saline with Tween-80) is reported as 1 of 6, the survivor count (dose: 200.0 mg/kg/injection, schedule: Q01DX009 (ip), vehicle: saline with Tween-80) is reported as 1 of 6 and the survivor count [10] is reported as 1 of 6.

With `CC12CC3CC(C)(C1)CC(O)(C3)C2` the survivor count [11] was 2 of 4.

`COC(=O)c1cc(C)[nH]c(=O)c1CN` was tested, and the survivor count (dose: 300.0 mg/kg/injection, schedule: Q01DX001 (ip), vehicle: water) was 3 of 6.

In the case of `CCCCCCCCCCCCCCCC(=O)N(CCCCN(C)C)CCCCN(C)C`, the survivor count (dose: 8.0 mg/kg/injection, schedule: Q01DX009 (ip), vehicle: carboxymethylcellulose (CMC)) is reported as 5 of 6, the survivor count (dose: 10.0 mg/kg/injection, schedule: Q01DX009 (ip), vehicle: carboxymethylcellulose (CMC)) is reported as 3 of 6 and the survivor count (dose: 12.0 mg/kg/injection, schedule: Q01DX009 (ip), vehicle: carboxymethylcellulose (CMC)) is reported as 3 of 6.

With `CCc1ccccc1NC(=O)Oc1ccc(SC)cc1` the survivor count [8] was 6 of 6, the survivor count [9] was 6 of 6 and the survivor count [2] was 2 of 3 and 5 of 6.

In the case of `Cc1cc(=O)c2cccc(-c3ccccc3)c2[nH]1`, the survivor count [7] is reported as 3 of 6.

`O=c1/c(=C\c2ccc(Cl)c(Cl)c2)sc2n1CCN=2` was tested, and the survivor count [1] was 6 of 6.

In the case of `O=[N+]([O-])c1cc([N+](=O)[O-])c2sc3ccccc3c2c1`, the survivor count (dose: 200.0 mg/kg/injection, schedule: Q04DX002 (ip), vehicle: saline with Tween-80) is reported as 3 of 3.

In the case of `C1=C(N2CCCCC2)C2CCC1C2` (configuration not stated), the survivor count [3] is reported as 1 of 6 and the survivor count [4] is reported as 0 of 6.

With `CCCCCC(/C=N\Nc1nnc(N/N=C\C(=C\c2ccccc2)CCCCC)c2ccccc12)=C/c1ccccc1` the survivor count (dose: 133.0 mg/kg/injection, schedule: Q01DX001 (ip), vehicle: carboxymethylcellulose (CMC)) was 1 of 4, the T/C (dose: 200.0 mg/kg/injection, schedule: Q01DX001 (ip), vehicle: carboxymethylcellulose (CMC)) was 129 % of control and the T/C [11] was 125 % of control.

`O=C(O)CNc1cc(S(=O)(=O)O)cc2cc(S(=O)(=O)O)c(N=Nc3cc(S(=O)(=O)O)cc4cc(S(=O)(=O)O)cc(O)c34)c(O)c12` was tested, and the survivor count (dose: 400.0 mg/kg/injection, schedule: Q01DX001 (ip), vehicle: other) was 3 of 6.

With `Oc1c(Br)cc(Br)cc1C=Nc1ccc(I)cc1.Oc1c(Br)cc(Br)cc1C=Nc1ccc(I)cc1.[Co]` the survivor count [10] was 3 of 3.

`CN(C)P1(=O)OCC(C(C)(C)C)CO1` (configuration not stated) was tested, and the survivor count [6] was 1 of 6 and the survivor count [7] was 0 of 6.

With `CCOc1c(Br)cc(N=Cc2ccc(N(CCCl)CCCl)c(OC)c2)cc1Br` the T/C (dose: 66.0 mg/kg/injection, schedule: Q01DX001 (ip), vehicle: carboxymethylcellulose (CMC)) was 130 % of control, the T/C (dose: 100.0 mg/kg/injection, schedule: Q01DX001 (ip), vehicle: carboxymethylcellulose (CMC)) was 129 and 133 % of control and the survivor count [11] was 0 of 4.

In the case of `Cn1c(=O)c2c(nc(NCC[N+](C)(C)C)n2C)n(C)c1=O`, the survivor count (dose: 60.0 mg/kg/injection, schedule: Q01DX001 (ip), vehicle: saline) is reported as 0 of 6, the survivor count (dose: 75.0 mg/kg/injection, schedule: Q01DX001 (ip), vehicle: saline) is reported as 0 of 6 and the survivor count [3] is reported as 0 of 6. The survivor count [4] was 0 of 6.
